Data reported in the supplement of paper PMC10849652.
Some of the results follow.

Protein sequences, listed by entry. Tags and fused reporters are not part of them. Lines headed by an entry give the natural chain unless they say otherwise; changes in a name come on top.
UniProt Q14191, whole entry, looked up: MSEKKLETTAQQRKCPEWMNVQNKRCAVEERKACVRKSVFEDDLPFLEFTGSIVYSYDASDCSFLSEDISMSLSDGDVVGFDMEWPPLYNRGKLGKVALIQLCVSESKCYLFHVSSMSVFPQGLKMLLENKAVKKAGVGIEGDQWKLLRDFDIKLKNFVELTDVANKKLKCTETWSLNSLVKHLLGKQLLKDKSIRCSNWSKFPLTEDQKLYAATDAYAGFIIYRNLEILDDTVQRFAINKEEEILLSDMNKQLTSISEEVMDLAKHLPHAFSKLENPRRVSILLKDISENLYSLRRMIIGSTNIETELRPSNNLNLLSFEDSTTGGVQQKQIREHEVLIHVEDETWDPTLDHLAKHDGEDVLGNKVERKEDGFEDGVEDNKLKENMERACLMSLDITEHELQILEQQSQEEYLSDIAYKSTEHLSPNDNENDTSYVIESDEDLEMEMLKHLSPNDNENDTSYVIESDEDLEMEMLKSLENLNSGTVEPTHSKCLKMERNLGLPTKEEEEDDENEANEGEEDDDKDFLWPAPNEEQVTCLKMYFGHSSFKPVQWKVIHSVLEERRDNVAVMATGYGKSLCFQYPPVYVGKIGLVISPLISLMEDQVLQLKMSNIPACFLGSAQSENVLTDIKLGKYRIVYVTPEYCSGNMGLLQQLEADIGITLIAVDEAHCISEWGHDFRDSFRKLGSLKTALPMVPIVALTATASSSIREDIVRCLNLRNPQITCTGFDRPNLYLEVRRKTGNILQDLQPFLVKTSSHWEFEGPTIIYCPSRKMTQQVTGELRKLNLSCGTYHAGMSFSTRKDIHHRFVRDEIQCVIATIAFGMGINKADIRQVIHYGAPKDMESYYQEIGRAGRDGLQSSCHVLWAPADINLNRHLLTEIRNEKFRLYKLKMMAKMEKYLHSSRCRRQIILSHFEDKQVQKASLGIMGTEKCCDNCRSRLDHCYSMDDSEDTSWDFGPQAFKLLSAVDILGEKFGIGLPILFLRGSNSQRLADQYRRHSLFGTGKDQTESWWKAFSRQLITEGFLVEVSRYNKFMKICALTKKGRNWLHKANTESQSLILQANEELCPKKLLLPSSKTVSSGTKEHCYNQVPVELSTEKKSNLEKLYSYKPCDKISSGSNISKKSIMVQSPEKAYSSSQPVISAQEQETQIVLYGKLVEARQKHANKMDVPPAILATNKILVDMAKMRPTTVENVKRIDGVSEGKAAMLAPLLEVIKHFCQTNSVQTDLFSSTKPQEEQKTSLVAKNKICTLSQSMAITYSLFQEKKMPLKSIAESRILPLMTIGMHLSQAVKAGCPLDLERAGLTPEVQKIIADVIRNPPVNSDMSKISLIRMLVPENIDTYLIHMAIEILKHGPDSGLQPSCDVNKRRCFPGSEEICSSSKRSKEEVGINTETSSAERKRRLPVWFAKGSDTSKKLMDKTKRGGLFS
UniProt Q9NP79: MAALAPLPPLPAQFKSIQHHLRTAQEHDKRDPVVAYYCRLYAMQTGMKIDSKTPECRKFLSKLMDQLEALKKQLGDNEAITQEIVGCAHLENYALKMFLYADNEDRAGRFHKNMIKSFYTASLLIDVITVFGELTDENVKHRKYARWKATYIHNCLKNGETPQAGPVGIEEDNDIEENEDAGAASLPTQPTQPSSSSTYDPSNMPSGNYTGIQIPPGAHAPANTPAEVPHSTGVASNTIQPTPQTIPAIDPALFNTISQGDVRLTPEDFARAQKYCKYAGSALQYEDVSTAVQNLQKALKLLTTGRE
UniProt Q9NQW7: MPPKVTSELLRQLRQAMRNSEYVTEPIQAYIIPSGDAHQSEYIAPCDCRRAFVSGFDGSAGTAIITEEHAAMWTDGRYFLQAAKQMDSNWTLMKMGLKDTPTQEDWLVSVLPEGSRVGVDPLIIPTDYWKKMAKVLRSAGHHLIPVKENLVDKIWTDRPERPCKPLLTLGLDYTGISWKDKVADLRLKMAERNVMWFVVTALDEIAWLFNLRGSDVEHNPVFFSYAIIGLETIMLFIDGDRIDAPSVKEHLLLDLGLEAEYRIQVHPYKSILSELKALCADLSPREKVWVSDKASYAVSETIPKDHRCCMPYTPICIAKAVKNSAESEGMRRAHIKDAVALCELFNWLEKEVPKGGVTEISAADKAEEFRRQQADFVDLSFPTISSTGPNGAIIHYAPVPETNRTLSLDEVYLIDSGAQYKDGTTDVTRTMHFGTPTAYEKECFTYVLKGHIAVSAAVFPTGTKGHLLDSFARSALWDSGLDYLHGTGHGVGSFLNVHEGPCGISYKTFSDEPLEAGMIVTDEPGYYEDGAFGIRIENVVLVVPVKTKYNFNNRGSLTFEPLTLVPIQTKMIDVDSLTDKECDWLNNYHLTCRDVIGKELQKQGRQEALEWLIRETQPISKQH
UniProt Q8TAF3: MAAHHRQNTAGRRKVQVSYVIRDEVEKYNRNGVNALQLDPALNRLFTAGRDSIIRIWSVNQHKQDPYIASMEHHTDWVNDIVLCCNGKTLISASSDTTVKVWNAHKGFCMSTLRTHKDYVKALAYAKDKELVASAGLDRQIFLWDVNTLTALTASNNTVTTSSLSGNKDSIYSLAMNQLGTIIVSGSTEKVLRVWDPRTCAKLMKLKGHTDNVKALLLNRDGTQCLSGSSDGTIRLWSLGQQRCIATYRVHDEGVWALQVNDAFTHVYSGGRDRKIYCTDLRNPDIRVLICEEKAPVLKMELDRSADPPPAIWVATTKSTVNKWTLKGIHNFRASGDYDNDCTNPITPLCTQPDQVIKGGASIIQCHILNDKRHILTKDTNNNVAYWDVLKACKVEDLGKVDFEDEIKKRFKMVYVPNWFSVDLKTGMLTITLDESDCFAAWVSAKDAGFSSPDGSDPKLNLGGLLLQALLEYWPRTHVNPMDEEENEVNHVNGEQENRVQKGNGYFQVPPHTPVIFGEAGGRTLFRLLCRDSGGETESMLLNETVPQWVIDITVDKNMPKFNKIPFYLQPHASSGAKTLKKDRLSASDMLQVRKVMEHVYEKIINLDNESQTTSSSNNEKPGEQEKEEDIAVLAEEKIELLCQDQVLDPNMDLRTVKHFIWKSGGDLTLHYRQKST
UniProt O15213: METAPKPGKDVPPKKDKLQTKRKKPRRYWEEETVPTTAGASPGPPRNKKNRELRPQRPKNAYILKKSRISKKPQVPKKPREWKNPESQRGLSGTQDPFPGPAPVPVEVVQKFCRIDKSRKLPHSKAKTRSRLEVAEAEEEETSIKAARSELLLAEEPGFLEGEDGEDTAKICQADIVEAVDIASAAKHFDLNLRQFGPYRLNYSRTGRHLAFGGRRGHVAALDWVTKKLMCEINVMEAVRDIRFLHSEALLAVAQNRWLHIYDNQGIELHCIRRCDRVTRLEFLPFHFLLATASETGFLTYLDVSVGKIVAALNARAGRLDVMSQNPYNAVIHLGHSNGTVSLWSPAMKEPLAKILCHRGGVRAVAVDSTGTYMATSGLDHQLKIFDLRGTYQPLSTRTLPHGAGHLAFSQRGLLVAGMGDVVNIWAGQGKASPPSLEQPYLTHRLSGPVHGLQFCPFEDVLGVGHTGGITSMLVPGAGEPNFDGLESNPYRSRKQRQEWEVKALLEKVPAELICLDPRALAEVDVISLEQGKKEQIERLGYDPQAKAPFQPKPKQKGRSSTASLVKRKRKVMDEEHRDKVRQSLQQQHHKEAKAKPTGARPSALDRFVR
UniProt Q9BQA1, whole entry, looked up: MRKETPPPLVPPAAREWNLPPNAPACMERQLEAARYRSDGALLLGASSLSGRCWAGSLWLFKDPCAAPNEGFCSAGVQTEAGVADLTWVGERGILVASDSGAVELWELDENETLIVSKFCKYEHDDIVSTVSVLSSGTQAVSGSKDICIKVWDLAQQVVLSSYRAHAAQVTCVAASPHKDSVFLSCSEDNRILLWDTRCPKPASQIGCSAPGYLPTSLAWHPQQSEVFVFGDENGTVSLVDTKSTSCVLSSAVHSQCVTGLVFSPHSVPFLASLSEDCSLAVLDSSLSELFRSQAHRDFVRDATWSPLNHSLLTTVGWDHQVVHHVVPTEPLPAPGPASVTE
UniProt Q2M389: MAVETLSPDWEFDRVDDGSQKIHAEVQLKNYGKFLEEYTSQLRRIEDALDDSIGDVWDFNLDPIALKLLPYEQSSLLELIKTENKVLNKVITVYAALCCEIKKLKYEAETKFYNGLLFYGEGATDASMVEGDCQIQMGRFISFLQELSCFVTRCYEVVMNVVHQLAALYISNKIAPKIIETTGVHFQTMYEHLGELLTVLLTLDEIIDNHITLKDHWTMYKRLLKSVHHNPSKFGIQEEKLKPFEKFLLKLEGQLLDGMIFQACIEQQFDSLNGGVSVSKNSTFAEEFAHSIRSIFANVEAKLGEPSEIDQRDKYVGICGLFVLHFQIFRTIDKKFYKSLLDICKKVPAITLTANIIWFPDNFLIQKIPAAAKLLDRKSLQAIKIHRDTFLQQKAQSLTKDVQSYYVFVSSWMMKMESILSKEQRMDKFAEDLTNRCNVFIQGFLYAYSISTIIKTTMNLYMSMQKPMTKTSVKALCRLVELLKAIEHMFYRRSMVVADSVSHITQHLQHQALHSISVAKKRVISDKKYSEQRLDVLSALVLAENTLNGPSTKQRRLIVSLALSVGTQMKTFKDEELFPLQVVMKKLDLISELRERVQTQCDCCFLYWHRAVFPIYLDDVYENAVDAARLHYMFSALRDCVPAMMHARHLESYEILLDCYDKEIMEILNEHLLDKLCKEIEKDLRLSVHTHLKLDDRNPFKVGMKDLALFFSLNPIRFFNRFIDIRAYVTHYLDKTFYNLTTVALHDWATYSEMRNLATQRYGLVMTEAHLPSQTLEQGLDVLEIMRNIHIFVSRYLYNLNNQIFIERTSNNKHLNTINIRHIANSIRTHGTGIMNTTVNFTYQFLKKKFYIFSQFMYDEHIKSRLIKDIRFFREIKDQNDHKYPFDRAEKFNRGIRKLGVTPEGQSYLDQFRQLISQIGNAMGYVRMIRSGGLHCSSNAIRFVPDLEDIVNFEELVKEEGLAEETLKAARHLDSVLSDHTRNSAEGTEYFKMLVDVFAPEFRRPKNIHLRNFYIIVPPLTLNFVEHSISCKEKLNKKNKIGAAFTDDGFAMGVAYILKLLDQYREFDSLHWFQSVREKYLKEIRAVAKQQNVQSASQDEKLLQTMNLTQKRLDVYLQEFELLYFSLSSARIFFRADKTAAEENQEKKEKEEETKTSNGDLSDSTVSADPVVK
UniProt Q5JSH3: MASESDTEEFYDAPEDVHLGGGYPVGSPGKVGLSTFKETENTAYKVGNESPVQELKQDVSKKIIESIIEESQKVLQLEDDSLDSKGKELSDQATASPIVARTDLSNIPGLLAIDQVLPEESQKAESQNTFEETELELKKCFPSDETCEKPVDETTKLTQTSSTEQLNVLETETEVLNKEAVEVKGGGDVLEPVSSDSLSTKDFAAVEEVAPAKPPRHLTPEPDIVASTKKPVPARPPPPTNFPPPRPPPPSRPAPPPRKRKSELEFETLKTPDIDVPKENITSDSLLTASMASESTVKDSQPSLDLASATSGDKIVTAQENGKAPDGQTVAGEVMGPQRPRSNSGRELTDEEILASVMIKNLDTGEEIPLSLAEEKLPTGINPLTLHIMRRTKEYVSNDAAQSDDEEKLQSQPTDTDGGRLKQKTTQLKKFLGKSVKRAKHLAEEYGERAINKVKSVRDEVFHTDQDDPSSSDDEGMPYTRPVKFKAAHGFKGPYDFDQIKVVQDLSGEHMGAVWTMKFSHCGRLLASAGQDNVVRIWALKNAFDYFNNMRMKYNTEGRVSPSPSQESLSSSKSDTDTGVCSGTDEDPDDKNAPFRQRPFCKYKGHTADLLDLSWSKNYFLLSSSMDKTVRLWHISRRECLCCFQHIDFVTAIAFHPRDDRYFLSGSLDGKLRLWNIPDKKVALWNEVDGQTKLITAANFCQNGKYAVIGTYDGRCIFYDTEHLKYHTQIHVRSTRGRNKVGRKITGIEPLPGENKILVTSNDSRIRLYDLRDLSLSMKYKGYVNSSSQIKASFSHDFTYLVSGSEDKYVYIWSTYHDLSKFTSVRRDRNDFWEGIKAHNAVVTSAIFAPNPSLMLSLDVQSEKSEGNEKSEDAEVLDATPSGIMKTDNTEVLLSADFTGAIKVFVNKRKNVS
UniProt O75351, whole entry, looked up: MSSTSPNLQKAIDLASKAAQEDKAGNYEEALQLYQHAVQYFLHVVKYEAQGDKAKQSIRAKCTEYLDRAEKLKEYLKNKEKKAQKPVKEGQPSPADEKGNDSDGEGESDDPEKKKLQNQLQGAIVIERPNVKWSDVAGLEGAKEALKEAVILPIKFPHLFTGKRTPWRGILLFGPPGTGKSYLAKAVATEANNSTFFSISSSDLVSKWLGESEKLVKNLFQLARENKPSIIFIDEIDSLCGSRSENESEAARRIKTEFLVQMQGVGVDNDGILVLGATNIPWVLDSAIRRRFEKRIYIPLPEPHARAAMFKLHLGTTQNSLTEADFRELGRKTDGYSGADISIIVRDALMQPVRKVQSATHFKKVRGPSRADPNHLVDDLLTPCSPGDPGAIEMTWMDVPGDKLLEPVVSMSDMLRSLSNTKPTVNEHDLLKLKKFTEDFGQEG

Assays:
Experiment in all cases: log2 fold change, soluble protein after heating vs DMSO (PISA); higher = thermal stabilisation; K562 lysate, 10 uM; active = over 0.2 and 3.5 SD of the protein, either way, in both replicates (recomputed)
ibrutinib = compound: C=CC(=O)N1CCC[C@@H](n2nc(-c3ccc(Oc4ccccc4)cc3)c3c(N)ncnc32)C1 [ibrutinib]
In short: (§1)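 Values give the log-two fold change in thermal stability against solvent controls, from duplicates. Crude K562 extract at 1 mg/mL protein, made by dounce homogenisation in PBS pH 7.4 with 1 mM MgCl2, was treated with 10 μM compound for 30 min. After 3 min heating across 48°C-58°C, aliquots were pooled, adjusted to 0.5% NP-40 at 4°C and centrifuged at 21,000xg for 90 min. The supernatant was measured by TMTpro 16plex LC-MS/MS with channel sums equalised.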

[1] = compound: CC(=O)c1cnc2ccc(-c3cc(Cl)c(O)c(Cl)c3)nc2c1N[C@H]1CC[C@H](CN(C)C)CC1
In short: as §1

ralimetinib = compound: CC(C)(C)Cn1c(N)nc2ccc(-c3[nH]c(C(C)(C)C)nc3-c3ccc(F)cc3)nc21 [ralimetinib]
In short: as §1

[2] = compound: CC(C)(O)CC(=O)NCCn1ccc2ncnc(Nc3ccc(Oc4cccc(C(F)(F)F)c4)c(Cl)c3)c21
In short: as §1

[3] = compound: CC(C)C1=C2N=C(C=C(N2N=C1)NCC3=CC=CC=C3)NCCCCCCN
In short: as §1

[4] = compound: CC1=C(C(CC(=O)N1)C2=CC=C(C=C2)C(F)(F)F)C(=O)NC3=C(C=C4C(=C3)C=NN4)F
In short: as §1

[5] = compound: CC1=C(C2=C(C=C1)C(=O)C3=CC=CC=C3N2CCCN)C
In short: as §1

[6] = compound: CC1=C(C=C(C=C1)NC(=O)C2=CC(=CC=C2)C(C)(C)C#N)NC3=CC4=C(C=C3)N=CN(C4=O)C
In short: as §1

[7] = compound: CC1=C(C=C(C=C1)NC(=O)C2=CC(=CC=C2)N(C)C)NC(=O)C3=CC=C(C=C3)O
In short: as §1

[8] = compound: CC1=CC=C(C=C1)SC2=C3C=C(SC3=CN=C2)C(=O)N
In short: as §1

vemurafenib = compound: CCCS(=O)(=O)Nc1ccc(F)c(C(=O)c2c[nH]c3ncc(-c4ccc(Cl)cc4)cc23)c1F [vemurafenib]
In short: as §1

[9] = compound: CCCS(=O)(=O)Nc1ccc(F)c(C(=O)c2c[nH]c3ncc(Cl)cc23)c1F
In short: as §1

barasertib = compound: CCN(CCCOc1ccc2c(Nc3cc(CC(=O)Nc4cccc(F)c4)[nH]n3)ncnc2c1)CCOP(=O)(O)O [barasertib]
In short: as §1

[10] = compound: CC[C@@H]1C(=O)N(C)c2cnc(Nc3ccc(C(=O)NC4CCN(C)CC4)cc3OC)nc2N1C1CCCC1
In short: as §1

volasertib = compound: CC[C@@H]1C(=O)N(C)c2cnc(Nc3ccc(C(=O)N[C@H]4CC[C@H](N5CCN(CC6CC6)CC5)CC4)cc3OC)nc2N1C(C)C [volasertib]
In short: as §1

[11] = compound: CCn1c(C(=O)N(C2CC2)C2CC2)cc2c3c(ncn3C)c(Nc3cc(C)n(C)n3)nc21
In short: as §1

[12] = compound: CCn1cc(-c2ccnc3[nH]c(-c4cccc(CN(C)C)c4)cc23)c(-c2ccc(NC(=O)N(C)C)cc2)n1
In short: as §1

[13] = compound: CN1CCC(CNc2ccc3ncc(-c4cccc(OC(F)(F)F)c4)n3n2)CC1
In short: as §1

saracatinib = compound: CN1CCN(CCOc2cc(OC3CCOCC3)c3c(Nc4c(Cl)ccc5c4OCO5)ncnc3c2)CC1 [saracatinib]
In short: as §1

sotrastaurin = compound: CN1CCN(c2nc(C3=C(c4c[nH]c5ccccc45)C(=O)NC3=O)c3ccccc3n2)CC1 [sotrastaurin]
In short: as §1

Measured: log2 fold change

WRN (UniProt Q14191)
inactive: ibrutinib 0.02 | [1] -0.008 | ralimetinib 0.021 | [2] -0.055 | [3] -0.016 | [4] 0.023 | [5] 0.019 | [6] -0.016 | [7] 0.016 | [8] -0.048 | vemurafenib -0.032 | [9] -0.065 | barasertib 0.026 | [10] -0.032 | volasertib 0.007 | [11] 0.053 | [12] -0.052 | [13] 0.022 | saracatinib 0.008 | sotrastaurin 0.031

VTA1 (UniProt Q9NP79)
inactive: ibrutinib 0.046 | [1] -0.003 | ralimetinib -0.024 | [2] -0.001 | [3] -0.012 | [4] -0.024 | [5] 0.027 | [6] -0.032 | [7] 0.017 | [8] -0.01 | vemurafenib -0.062 | [9] 0.013 | barasertib -0.024 | [10] -0.05 | volasertib -0.014 | [11] -0.01 | [12] 0.055 | [13] -0.063 | saracatinib 0.004 | sotrastaurin -0.005

XPC (UniProt Q01831)
inactive: ibrutinib 0.012 | [1] -0.002 | ralimetinib 0.024 | [2] 0.033 | [3] 0.04 | [4] 0.033 | [5] -0.015 | [6] 0.037 | [7] -0.008 | [8] 0.043 | vemurafenib -0.067 | [9] 0.036 | barasertib 0.016 | [10] -0.059 | volasertib -0.031 | [11] -0.002 | [12] 0.073 | [13] -0.107 | saracatinib 0 | sotrastaurin -0.033

XPNPEP1 isoform 3 (UniProt Q9NQW7)
inactive: ibrutinib 0.012 | [1] -0.007 | ralimetinib 0.017 | [2] -0.026 | [3] -0.009 | [4] 0.007 | [5] -0.026 | [6] -0.025 | [7] -0.005 | [8] 0.002 | vemurafenib 0.001 | [9] 0.015 | barasertib 0.008 | [10] -0.044 | volasertib -0.054 | [11] 0.014 | [12] -0.022 | [13] 0.019 | saracatinib -0.001 | sotrastaurin -0.016

WDR48 (UniProt Q8TAF3)
inactive: ibrutinib 0.007 | [1] -0.012 | ralimetinib 0.017 | [2] -0.01 | [3] -0.032 | [4] 0.008 | [5] -0.032 | [6] 0.01 | [7] -0.01 | [8] -0.013 | vemurafenib 0.006 | [9] 0.02 | barasertib -0.005 | [10] 0.004 | volasertib 0.007 | [11] -0.008 | [12] -0.171 | [13] 0.066 | saracatinib 0.013 | sotrastaurin 0.008

WDR46 (UniProt O15213)
inactive: ibrutinib -0.029 | [1] -0.002 | ralimetinib 0.074 | [2] -0.024 | [3] 0.011 | [4] -0.016 | [5] -0.059 | [6] 0.019 | [7] 0.05 | [8] 0.016 | vemurafenib 0.062 | [9] 0.006 | barasertib -0.078 | [10] 0.037 | volasertib 0 | [11] -0.029 | [12] -0.046 | [13] 0 | saracatinib 0.048 | sotrastaurin 0.019

Quoted at random: 2 entries already listed.
XPNPEP1 isoform 3 (UniProt Q9NQW7)
inactive: ibrutinib 0.012 | [1] -0.007 | ralimetinib 0.017 | [2] -0.026 | [3] -0.009 | [4] 0.007 | [5] -0.026 | [6] -0.025 | [7] -0.005 | [8] 0.002 | vemurafenib 0.001 | [9] 0.015 | barasertib 0.008 | [10] -0.044 | volasertib -0.054 | [11] 0.014 | [12] -0.022 | [13] 0.019 | saracatinib -0.001 | sotrastaurin -0.016

VTA1 (UniProt Q9NP79)
inactive: ibrutinib 0.046 | [1] -0.003 | ralimetinib -0.024 | [2] -0.001 | [3] -0.012 | [4] -0.024 | [5] 0.027 | [6] -0.032 | [7] 0.017 | [8] -0.01 | vemurafenib -0.062 | [9] 0.013 | barasertib -0.024 | [10] -0.05 | volasertib -0.014 | [11] -0.01 | [12] 0.055 | [13] -0.063 | saracatinib 0.004 | sotrastaurin -0.005

Carrying on:

WDR77 (UniProt Q9BQA1)
inactive: ibrutinib 0.016 | [1] 0.022 | ralimetinib 0.031 | [2] 0.024 | [3] -0.012 | [4] -0.022 | [5] -0.004 | [6] 0.007 | [7] -0.01 | [8] 0.032 | vemurafenib -0.095 | [9] -0.012 | barasertib -0.045 | [10] -0.029 | volasertib 0.004 | [11] 0.022 | [12] -0.004 | [13] 0.011 | saracatinib -0.032 | sotrastaurin 0.001

WARS (UniProt P23381)
inactive: ibrutinib 0.027 | [1] -0.002 | ralimetinib 0.004 | [2] 0.014 | [3] 0.014 | [4] -0.012 | [5] -0.008 | [6] 0.011 | [7] -0.018 | [8] -0.008 | vemurafenib -0.008 | [9] -0.012 | barasertib -0.043 | [10] 0.048 | volasertib 0.016 | [11] -0.025 | [12] 0.131 | [13] -0.061 | saracatinib -0.002 | sotrastaurin -0.052

WASHC4 (UniProt Q2M389)
inactive: ibrutinib 0.007 | [1] 0.007 | ralimetinib -0.026 | [2] 0.012 | [3] -0.027 | [4] -0.008 | [5] 0.009 | [6] 0.049 | [7] 0.022 | [8] -0.005 | vemurafenib 0.01 | [9] 0.012 | barasertib 0.033 | [10] -0.019 | volasertib -0.033 | [11] 0.021 | [12] -0.066 | [13] -0.008 | saracatinib -0.008 | sotrastaurin -0.007

VPS50 (UniProt Q96JG6)
inactive: ibrutinib -0.057 | [1] 0.013 | ralimetinib -0.006 | [2] 0.007 | [3] -0.078 | [4] 0.013 | [5] 0.027 | [6] 0.061 | [7] -0.001 | [8] -0.004 | vemurafenib 0.003 | [9] -0.014 | barasertib 0.043 | [10] -0.017 | volasertib -0.006 | [11] 0.028 | [12] -0.023 | [13] -0.023 | saracatinib 0.018 | sotrastaurin 0.018

WDR44 (UniProt Q5JSH3)
inactive: ibrutinib 0.009 | [1] -0.021 | ralimetinib 0.012 | [2] -0.027 | [3] 0.001 | [4] -0.007 | [5] -0.004 | [6] 0.002 | [7] -0.002 | [8] -0.014 | vemurafenib 0.01 | [9] -0.007 | barasertib 0.01 | [10] 0.027 | volasertib 0.01 | [11] -0.031 | [12] -0.035 | [13] 0.062 | saracatinib 0.011 | sotrastaurin 0.006

VPS4B (UniProt O75351)
inactive: ibrutinib -0.006 | [1] -0.002 | ralimetinib 0.061 | [2] 0.024 | [3] 0.071 | [4] 0.005 | [5] -0.07 | [6] -0.077 | [7] 0.048 | [8] 0.016 | vemurafenib 0.046 | [9] 0.009 | barasertib 0.021 | [10] -0.033 | volasertib -0.039 | [11] 0.027 | [12] 0.044 | [13] -0.081 | saracatinib 0.032 | sotrastaurin 0.034
